{
  "source": "patent US12173029B2",
  "about": "“Antiviral prodrugs, pharmaceutical formulations, and methods” (priority 2020, dated 2024)",
  "key": {"SARS-CoV-2 [1]": {"tested_on": "SARS-CoV-2", "conditions": "RDV in Calu3 2B4, Pruijssers et al.; cited from earlier work"}, "SARS-CoV-2 [2]": {"tested_on": "SARS-CoV-2", "conditions": "RDV in human alveolar epithelial cells (HAE), Pruijssers et al.; cited from earlier work"}, "[3]": {"experiment": "Example 10 stability in human plasma", "assay_type": "in vitro ADME", "conditions": "2 micrograms/ml, 37° C., K2EDTA or sodium heparin as anticoagulant"}, "[4]": {"assay_type": "in vivo", "conditions": "Syrian hamsters, oral, day 1 and 7", "experimental": "ODBG-P-RVn in 0.1M sodium carbonate/bicarbonate buffer, pH 9.0, was administered to Syrian Hamsters by oral gavage every 12 hours for seven days. ODBG-P-RVn was present as the sodium salt.\nFIG. 5A and FIG. 5B depict the seven day oral pharmacokinetics in Syrian hamsters. Syrian hamsters were given vehicle or ODBG-P-RVn by oral gavage every 12 hours for 7 days. Groups of 3 animals received vehicle or drug at doses of 16.9 and 13.2 mg/kg. Animals were weighed daily and monitored for clinical signs.\nAnalytical Methods: ODBG-P-RVn: Hamster plasma samples (10 μL) containing ODBG-P-RVn and K2EDTA as the anticoagulant were added to polypropylene tubes containing water (100 μL), internal standard solution (10 μL; 1,000 ng/mL of ODE-P-RVn in ACN:DMF (1:1, v/v)), and 10 μL of ACN:DMF (1:1, v/v). The solutions were mixed, then acidified with phosphoric acid, 85% w/v:water (1:19, v/v; 10 μL), mixed, then diluted with 200 μL of IPA, mixed, then diluted with 500 μL of water, and mixed. […] The ODBG-P-RVn extracts were analyzed using an Agilent 1200 HPLC system (Agilent, Santa Clara, CA) coupled to an API5500 mass analyzer (SCIEX, Foster City, CA). […]\nThe solutions were mixed and centrifuged at 16,000 g for five minutes. […] The GS-441524 extracts were analyzed using an Acquity UPLC system (Waters, Milford, MA) coupled to a G2-S QTof mass analyzer (Waters, Milford, MA). […]"}},
  "note": "Where two headings read alike, the source gives them in different places. At least one compound was matched to its structure with a doubt left. Some of these results come from one statement about several compounds together.",
  "data": [
    {"smiles": "CCC(CC)COC(=O)[C@H](C)N[P@](=O)(OC[C@H]1O[C@@](C#N)(c2ccc3c(N)ncnn23)[C@H](O)[C@@H]1O)Oc1ccccc1", "note": "[RDV, Remdesivir]", "values": [
      {"measurement": "EC50", "setting": "SARS-CoV-2 [1]", "result": 280, "unit": "nM"},
      {"measurement": "EC50", "setting": "SARS-CoV-2 [2]", "result": 10, "unit": "nM"}
    ]},
    {"smiles": "CCCCCCCCCCCCCCCCCCOC[C@H](COP(=O)(O)OC[C@H]1O[C@@](C#N)(c2ccc3c(N)ncnn23)[C@H](O)[C@@H]1O)OCc1ccccc1", "note": "[Compound 15d, 1-O-octadecyl-2-O-benzyl-glyceryl-sn-3-phospho-RVn]", "values": [
      {"measurement": "stability in human plasma (time stable)", "setting": "[3]", "result": "at least 24 hours"},
      {"measurement": "plasma ODBG-P-RVn levels at 12 hours relative to EC90", "setting": "[4]", "result": "above the EC90 for ODBG-P-RVn in all cell lines studied"}
    ]}
  ]
}
